Reference: publication PMC7060279
Residue numbers refer to the chain shown, from its start. No constants are given. Whether binding was seen depends on the method and setting. Some results given as binding are weak or reduced against the parent protein; the word gives no strength.

The chains behind the UniProt entries cited, without tags or fusion partners. Residues count along the entry.
UniProt O00206, residues 24-631: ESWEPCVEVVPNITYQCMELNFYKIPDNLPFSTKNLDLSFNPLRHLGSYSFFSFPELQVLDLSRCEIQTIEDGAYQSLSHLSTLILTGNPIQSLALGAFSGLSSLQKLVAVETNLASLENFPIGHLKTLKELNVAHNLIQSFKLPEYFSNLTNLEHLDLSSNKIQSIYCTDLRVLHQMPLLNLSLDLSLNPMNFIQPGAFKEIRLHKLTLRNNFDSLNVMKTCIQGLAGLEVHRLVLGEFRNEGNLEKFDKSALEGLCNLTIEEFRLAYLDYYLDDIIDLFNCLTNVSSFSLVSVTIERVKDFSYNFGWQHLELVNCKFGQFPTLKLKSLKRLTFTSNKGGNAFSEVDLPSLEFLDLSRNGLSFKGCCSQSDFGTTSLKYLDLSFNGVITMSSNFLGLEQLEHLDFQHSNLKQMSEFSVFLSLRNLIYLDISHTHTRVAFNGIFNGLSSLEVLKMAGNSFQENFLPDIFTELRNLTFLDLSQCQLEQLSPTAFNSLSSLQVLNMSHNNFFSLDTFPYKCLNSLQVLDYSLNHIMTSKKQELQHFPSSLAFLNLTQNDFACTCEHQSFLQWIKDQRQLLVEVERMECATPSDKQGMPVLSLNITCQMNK
UniProt O60603, residues 21-588: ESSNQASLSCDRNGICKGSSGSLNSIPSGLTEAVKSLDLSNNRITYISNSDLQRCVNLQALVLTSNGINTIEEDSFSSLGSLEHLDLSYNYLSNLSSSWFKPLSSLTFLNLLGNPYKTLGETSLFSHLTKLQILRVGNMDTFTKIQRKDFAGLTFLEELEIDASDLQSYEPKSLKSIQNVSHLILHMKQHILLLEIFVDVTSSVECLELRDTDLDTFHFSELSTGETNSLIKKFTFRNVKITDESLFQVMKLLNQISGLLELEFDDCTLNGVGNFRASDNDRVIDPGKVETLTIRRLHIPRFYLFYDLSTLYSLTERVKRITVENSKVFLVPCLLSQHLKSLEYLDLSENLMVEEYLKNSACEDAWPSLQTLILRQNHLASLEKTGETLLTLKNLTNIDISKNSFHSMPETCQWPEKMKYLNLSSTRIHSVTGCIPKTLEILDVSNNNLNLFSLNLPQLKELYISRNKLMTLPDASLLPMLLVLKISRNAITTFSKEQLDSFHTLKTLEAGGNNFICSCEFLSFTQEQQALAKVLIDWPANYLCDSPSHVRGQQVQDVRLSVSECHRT

Columns and labels:
[1] = target: T1, CCN1-WT (recombinant matricellular protein CCN1) (UniProt P18406); test: far-Western, overlay or dot blot; dot blot: CCN1-WT, -D125A and -DM (1 µg each) spotted on nitrocellulose, incubated with hTLR2 or hTLR4 in PBS; bound TLRs detected with polyclonal anti-hTLR2 or anti-hTLR4 antibodies; both purified
T1 sequence: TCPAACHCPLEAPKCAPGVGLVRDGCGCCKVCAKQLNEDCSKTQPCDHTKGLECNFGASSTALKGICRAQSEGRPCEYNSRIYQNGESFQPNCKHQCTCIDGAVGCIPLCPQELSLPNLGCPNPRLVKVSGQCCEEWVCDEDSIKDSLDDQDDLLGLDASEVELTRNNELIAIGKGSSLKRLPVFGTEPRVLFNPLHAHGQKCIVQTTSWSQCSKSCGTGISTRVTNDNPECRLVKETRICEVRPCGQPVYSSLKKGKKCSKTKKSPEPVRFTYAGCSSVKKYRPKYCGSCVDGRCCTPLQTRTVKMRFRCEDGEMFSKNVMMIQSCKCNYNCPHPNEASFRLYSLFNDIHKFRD

[2] = target: T2, CCN1-D125A mutant protein (UniProt P18406); test: as above
T2 sequence: T1 sequence with D101A

[3] = target: T1, CCN1-WT (recombinant matricellular protein CCN1); test: ELISA; solid-phase-binding assay: 96-well plates coated with serially diluted CCN1 in bicarbonate/carbonate buffer (100 mM, pH 9.6) overnight at 4 °C, blocked with PVA; hTLR2, hTLR4 or hCD14 (0.2 µg per well) added; detected with anti-hTLR2, anti-hTLR4 or anti-hCD14 antibodies, HRP/TMB, A450; both …

Measured: binding

human recombinant TLR4 protein (without MD2) (from UniProt O00206 24-631) (receptor)
binds: all assays above

human recombinant TLR2 protein (from UniProt O60603 21-588) (receptor)
binds: all assays above
